These results are taken from patent US11571437B2, “Methods of treating cancer using PRMT5 inhibitors” (Janssen Pharmaceutica NV, priority 2019, dated 2023).

This data set can be described thus: Phase 1 open-label study Part 1: safety and tolerability. The class given is in vivo, human. The text has this: This is a multi-part, Phase 1, open-label, multicenter study to evaluate the safety, pharmacokinetics, pharmacodynamics, and preliminary clinical activity of JNJ-64619178 monotherapy administered either to adult human subjects with advanced solid tumors or B cell non-Hodgkin lymphomas who previously received or are ineligible for standard treatment options, or to adult subjects with lower risk myelodysplastic syndromes (MDS) who are red blood cell (RBC) transfusion-dependent and relapsed or refractory to erythropoiesis-stimulating agent (ESA) treatment.
Fifteen (15) participants with various solid tumors (e.g., breast cancer, prostate cancer, salivary duct carcinoma, adenoid cystic carcinoma) were dosed in the “Part 1” study described below with JNJ-64619178 at 0.5 mg (1′ cohort), 1 mg (2nd cohort), 2 mg (3rd cohort) and 4 mg (4th cohort) under a schedule of 14 days continuous dose administration followed by a 7-day rest period (14 days on/7 days off in a 21-day cycle). […]
The JNJ-64619178 starting dose is based on toxicology results obtained using no observed adverse effect level (NOAEL) dose, more conservative than the highest non-severely toxic dose (HNSTD) in the dog as the most sensitive species. […] Alternative dosing schedules (e.g., continuous dosing, 7 days on/7 days off, and 7 days on/14 days off) are also evaluated. […]

For the compound `Nc1nc2cc(CC[C@H]3C[C@@H](n4ccc5c(N)ncnc54)[C@H](O)[C@@H]3O)ccc2cc1Br` [JNJ-64619178, (1S,2R,3S,5R)-3-(2-(2-amino-3-bromoquinolin-7-yl)ethyl)-5-(4-amino-7H-pyrrolo[2,3-d]pyrimidin-7-yl)cyclopentane-1,2-diol], the “provisional RP2D” value runs as follows: (QD) 1 mg; (intermittently) 1.5 mg.
